No constants are given. Whether binding was seen depends on the method and setting. Binding seen in cells or lysates may run through a third protein. A yes stands for co-enrichment or nearness to the bait. Other partners may have been found.
Target: Y-box-binding protein 1 (YBX1), endogenous (mouse (endogenous in mouse spinal cord tissue; the species of the primary neurons is not stated)) (UniProt P62960)
Assay: affinity purification with mass spectrometry; IP of YBX1, products separated by SDS-PAGE, Coomassie stained, target gel area analysed by MS; source of the sample not stated

Sequences of proteins named here, by UniProt entry; tags and fusion partners are left off.
UniProt P62960: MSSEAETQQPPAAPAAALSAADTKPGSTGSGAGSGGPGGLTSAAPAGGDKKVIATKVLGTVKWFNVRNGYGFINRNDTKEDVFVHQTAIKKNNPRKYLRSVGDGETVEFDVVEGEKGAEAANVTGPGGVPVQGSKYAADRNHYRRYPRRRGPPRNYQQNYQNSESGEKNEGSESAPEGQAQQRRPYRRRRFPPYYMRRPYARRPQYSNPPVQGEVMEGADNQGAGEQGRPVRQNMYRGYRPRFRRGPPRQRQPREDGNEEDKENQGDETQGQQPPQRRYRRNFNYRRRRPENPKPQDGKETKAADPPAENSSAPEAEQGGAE

B1: E3 ubiquitin ligase TRIM56, endogenous (protein, UniProt Q80VI1 1-734)
chain: MNSKVSSPTLLEALSSDFLACKICLEQLHTPKTLPCLHTYCQDCLAQLDIGGQVRCPECREIVPVPAEGVAAFKTNFFVNGLLDLVKARAPGDVHSGKPTCALCPLVGGKSSGGPATARCLDCADDLCQACADGHRCSRQTHKHRVVDLVGYRAGWYDEEARERQASQCPQHPGEALCFLCQPCSQLLCKDCRLGPHIDHPCLPLAEAVRSRKPGLEELLAGVDSNLVELEATRVAEKEALALLREQAASVGTQVEEAAERILKSLLAQKQEVLGQLRALVEAAEEATRERLTKIERQEQVAKAAAAFARRVLSLGLEAEILSLEGAITQRLRQLQDAPWTSGPTRCVLPQLELHPGLEDKNCHLLRLIFEEPKQSPKDSGKGGAGTQGGDEAQGQGDDRTKIGKQGGAQPLTPKEGKDQNPQEDDGVFIERGNRPNKKKKCKGRGKSVSREPSPILRPNLEGSGLLPRPVFSWSFPTRMPGDKRSPRITGLCPYGPQEILVADEQNRVLKRFSLNGDYKGTVQVPEGCSPCSVAALQNAVAFSANAKLYLVSPDGEIQWRRSLSLTQSSHAVAAMPCGDRVAVSVAGHVEVYKKDGSLATRFIPGGKASRGQRALVFLTTSPQGNFVGSDWQQNSVVFCDGLGQVIWEYKGPGLHGCQPGSVSVDKKGYIFLTLREVNKVVILDPKGSLLGDFLTAYHGLEKPRVTTMVDGKYLVVSLSNGTIHVFRVRFPDS
binding: binds
